# Among all 340,000 compounds or so, about 170 (0.05%) were called active. Inconclusive means that the source gave no clear call. Such entries were picked first, then a sample of the others. Calls come from the whole dose curve; as a rule, active = well fitted inhibition curve with a large enough effect in the signal ratio, with a control signal flat (not every such curve was filed as active); inconclusive = small, poorly fitted or top-dose-only effect, or effect the other way, or a change in a side signal; inactive = flat fitted curve, though single readings scatter; the % refers to the signal ratio. Potencies beside an inconclusive call are fits to weak or partial responses and may not hold up.
# Test: qHTS Assay to Find Inhibitors of Chronic Active B-Cell Receptor Signaling;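 for activity change, negative = inhibition: plate controls were basal doxycycline-induced cells for no effect and cells given 10 µM MG132 for full effect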
# Settings: ABC-DLBCL IkBa-CBG/CBR reporter, luminescence ratio (green luciferase fused to IkBa over red control in TMD8 lymphoma cells), 4 h; activity change, negative = inhibition: at 46.1 µM (top of the series)
# In short: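 Concentration-response series (up to 46 uM) were applied to TMD8 dual-reporter cells for 4 h at 37C with doxycycline. Green/red ratio, after filter-overlap correction, defined %Activity; red signal alone was normalised to basal cells and zero luminescence.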
# Potency is the fitted concentration of half-maximal effect.
Structure (SMILES),"activity change, negative = inhibition",Potency
O=C(O)c1ccc(Cl)c(S(=O)(=O)Nc2cccc(C(=O)Nc3cccc(C(F)(F)F)c3)c2)c1,inactive: 2.78%,
O=[N+]([O-])c1ccc(-c2nnc(-c3ccccc3)c(NCCCO)n2)cc1,,"inconclusive: 4.61 µM [falling, partial curve]"
CCOc1ccccc1NC(=O)Nc1ccc2c(c1)OCO2,,"inconclusive: 8.91 µM [falling, partial curve, poor fit]"
COc1ccc(CNC(=O)c2cc(=O)c3ccccc3o2)cc1,inactive: -0.818%,
O=C(c1ccc(O)cc1)c1ccc(C(=O)c2ccc(O)cc2)cc1,inconclusive: -20.2%,"inconclusive: 20.6 µM [falling, partial curve, poor fit]"
O=C(COc1ccc(Cl)cc1Cl)NCCCN1CCOCC1,inconclusive: 6.27%,
C/C(=N/OC(=O)C1CC1)c1cc(-c2ccc(Cl)cc2)no1,inconclusive: 4.39%,
O=C(NC(=S)Nc1ccccn1)c1ccc([N+](=O)[O-])cc1,inactive: 1.08%,
CCC12CCCN3CCC4(C(=C(C(=O)OC)C1)Nc1ccccc14)C32 (configuration not stated),inactive: -8.45%,
CCN(CC)S(=O)(=O)c1ccc(Cl)c(NC(=S)NC(=O)C2CCCC2)c1,inconclusive: 7.75%,
CCCn1c(NC(=O)c2ccccc2)nc2ccccc21,inconclusive: -27.9%,
CCOC(=O)c1c(C)[nH]c(C=C2C(=O)CCCC2=O)c1O,inactive: 1.64%,
CCOC(=O)C1(CCOC)CCN(Cc2ccc(C(=O)OC)cc2)CC1,,"inconclusive: 10 µM [falling, partial curve]"
Cc1nn(-c2ccccc2)nc1CNC(=O)CC(C)(C)C,inconclusive: 19.6%,
O=C(c1ccccc1)c1ccc(N2CCCC2)cc1,inconclusive: -3.93%,
COc1ccc2oc(=O)c(C(=O)NCc3ccc(C)cc3)cc2c1,inactive: 0.908%,
O=C(COC(=O)/C=C/c1cccc([N+](=O)[O-])c1)NCCCN1CCCC1=O,inconclusive: 28.7%,
C[C@@H]1CC=C[C@H]2[C@H]1C(=O)N(Cc1ccccc1)[C@H]2c1ccc2ccccc2c1Br,inconclusive: -0.458%,
Nc1nc2c(s1)C(=O)CCC2,inconclusive: 9.42%,
CCOc1ccc(CN(C)C(=O)CNC(=O)c2ccccc2)cc1,inactive: 2.23%,
O=C(Nc1ccccc1)NC1CC2CCC(C1)N2Cc1nnnn1Cc1ccc2c(c1)OCO2 (configuration not stated),inconclusive: -2.34%,
CSc1ccccc1OCc1cc(C(=O)NC(C)Cc2cccc(C)n2)no1 (configuration not stated),inconclusive: -16.9%,
CCn1ncc([N+](=O)[O-])c1C(=O)Nc1nc2cccc(C)c2s1,inconclusive: 13.5%,
CC(C)/C=C1\CCc2c([nH]c3ccccc23)C1=O,,"inconclusive: 35.5 µM [falling, single point]"
Cc1ccccc1N=C(N)Nc1ccccc1C,inconclusive: 3.59%,
CN(CCc1ccccn1)C(=O)c1cc(COc2ccc(F)cc2F)on1,inconclusive: 5.88%,

Structure (SMILES),"activity change, negative = inhibition",Potency
COc1ccc(N(C)C(=O)c2cn(CC(C)C)c(=O)c3cc(OC)c(OC)cc23)cc1,inconclusive: -2.82%,
Cc1c(OCC(=O)N2C[C@H]3C[C@@H](C2)c2cccc(=O)n2C3)ccc2c3c(c(=O)oc12)CCCC3,inconclusive: 1.05%,
COc1ccc(Nc2nc(C(=O)N3CCc4ccccc4C3)cs2)cc1,inconclusive: -27%,
COc1ccc(N2C(=O)CC(Sc3nc(C)c4c(n3)CCCC4)C2=O)cc1 (configuration not stated),inactive: 0.991%,
CCC(C)Nc1nc(N)c([N+](=O)[O-])c(Nc2cc(OC)ccc2OC)n1 (configuration not stated),inconclusive: 0.0433%,
O=C(c1ccc2c(c1)N(Cc1ccccc1)C(=O)c1ccccc1S2)N1CCCC1,inconclusive: 1.23%,
CCOc1ccc(-c2c(C(=O)N/N=C/c3ccsc3)nnn2-c2nonc2N)cc1,inactive: 12.6%,
CC(=O)C1=C(c2ccccc2)NC(=O)NC1c1ccccc1OCC(=O)NCc1ccccc1 (configuration not stated),,"inconclusive: 18.4 µM [falling, partial curve]"
CCN(CC)S(=O)(=O)c1ccc(C)c(NC(=S)N2CCN(C/C=C/c3ccccc3)CC2)c1,inconclusive: -5.21%,
COc1cccc(N=C2NC(=O)/C(=C/c3cc([N+](=O)[O-])ccc3O)S2)c1,inactive: 5.76%,
CCc1ccc(NC(=O)c2noc(C(C)C)c2[N+](=O)[O-])cc1,,"inconclusive: 7.94 µM [rising, partial curve, poor fit]"
Cc1cccc2c1c1ccc3c(c1n2C)C(=O)C=CC3=O,inconclusive: -1.8%,
CN1CCN(c2ccc(CNS(=O)(=O)c3cccc(F)c3)cc2)CC1,inconclusive: 6.6%,
O=C(/C=C/c1cccc(OCc2ccccc2)c1)c1cccnc1,inconclusive: 23.3%,
NS(=O)(=O)c1ccc(NS(=O)(=O)c2ccc(C3CNC(=O)C3)cc2)cc1 (configuration not stated),inactive: -0.216%,
O=C(COC(=O)CNC(=O)c1ccc(Cl)cc1Cl)Nc1ccc(N2CCOCC2)cc1,,"inconclusive: 3.55 µM [falling, partial curve, poor fit]"
CCN1C(=NCCCOC(C)C)N[C@@H](CCc2ccccc2)[C@H](C(=O)NCCCOC(C)C)[C@H]1C,,"inconclusive: 0.501 µM [falling, full curve, poor fit]"
COc1ccc(-n2c(SCC(=O)NNC(=O)c3ccccc3C)nnc2-c2ccncc2)cc1,inconclusive: 0.754%,
c1ccc(Nc2nc(-c3cccnc3)cs2)nc1,inconclusive: -28.8%,
CC(C)[C@H](NS(=O)(=O)/C=C/c1ccccc1)C(=O)OCC(=O)NC(N)=O,inconclusive: -1.2%,
Cc1nnc(NC(=O)CSc2cn(Cc3ccccc3)c3ccccc23)s1,inactive: 23.9%,
COc1ccccc1NC(=O)Cn1c(O)c(N=NC(=O)c2ccccc2O)c2ccccc21,,"inconclusive: 3.55 µM [falling, partial curve]"
CCCCCC(=O)NNC(=S)NC(=O)c1ccccc1[N+](=O)[O-],inactive: 0.175%,
CC(C)CC(NS(=O)(=O)c1ccc2c(c1)oc(=O)n2C)C(=O)NCc1cccnc1 (configuration not stated),inconclusive: 9.94%,
O=C(O)c1ccccc1-c1ccc(/C=C/c2cc(C(F)(F)F)[nH]c(=O)n2)o1,inconclusive: -11.2%,

# Reprinted at random: 4 records from the list, in no set order.
Structure (SMILES),"activity change, negative = inhibition",Potency
CCCCCC(=O)NNC(=S)NC(=O)c1ccccc1[N+](=O)[O-],inactive: 0.175%,
O=C(/C=C/c1cccc(OCc2ccccc2)c1)c1cccnc1,inconclusive: 23.3%,
CCc1ccc(NC(=O)c2noc(C(C)C)c2[N+](=O)[O-])cc1,,"inconclusive: 7.94 µM [rising, partial curve, poor fit]"
CCOc1ccc(-c2c(C(=O)N/N=C/c3ccsc3)nnn2-c2nonc2N)cc1,inactive: 12.6%,

# Source: PubChem BioAssay AID493014 (National Center for Advancing Translational Sciences (NCATS), 2011)
